Results as given in paper PMC8429438.
No constants are given. Whether binding was seen depends on the method and setting. In cells and extracts the contact can be indirect. Binding can be weak; no strength is given.

Target: T1, DnaJC7 (endogenous, PS19 mouse brain) (mouse (endogenous in PS19 mouse brain)) (UniProt Q9QYI3)
T1 sequence: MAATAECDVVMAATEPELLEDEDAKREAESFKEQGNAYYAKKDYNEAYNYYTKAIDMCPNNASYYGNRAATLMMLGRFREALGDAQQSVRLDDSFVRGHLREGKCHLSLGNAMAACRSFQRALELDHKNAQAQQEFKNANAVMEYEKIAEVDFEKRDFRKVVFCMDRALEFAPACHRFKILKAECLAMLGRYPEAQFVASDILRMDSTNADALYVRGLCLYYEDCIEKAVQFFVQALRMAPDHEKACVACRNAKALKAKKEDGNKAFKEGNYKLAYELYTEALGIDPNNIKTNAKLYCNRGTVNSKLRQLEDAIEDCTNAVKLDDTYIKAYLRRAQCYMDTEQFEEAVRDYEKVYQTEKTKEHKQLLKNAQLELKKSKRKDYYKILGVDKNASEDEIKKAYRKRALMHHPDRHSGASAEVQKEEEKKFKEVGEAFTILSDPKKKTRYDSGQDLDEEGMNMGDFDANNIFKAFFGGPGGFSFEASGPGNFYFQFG
Test: co-IP; PS19 mouse brain lysate (TBS), anti-DnaJC7 antibody on Protein A Dynabeads, 4 °C overnight; western blot with anti-tau and anti-DnaJC7; rabbit IgG as control

binding: binds
Substance: human 1N4R P301S tau expressed in PS19 tauopathy mouse brain
